Experimental data: PubChem BioAssay AID686938 (Drosophila RNAi Screening Center, 2013)

Purpose: 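Fly genes required for calcium entry once internal stores are emptied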 (primary screen)
Cell system: Drosophila S2R+ cells
Reagents: long dsRNA against Drosophila genes, about 0.25 µg dsRNA per well, roughly 10,000 cells
Timing: 5 days of knock-down before the calcium assay
Treatment: thapsigargin (SERCA pump blocker) to empty calcium stores; entry signal taken 4 min after adding it
Measured: 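Duplicate raw fluo-4 intensities per well from a plate reader, at rest and four minutes after thapsigargin emptied calcium stores; entry-to-rest ratio filled for only some wells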
Scale: calcium entry signal: higher = stronger calcium signal after store depletion; entry to resting ratio: higher = more calcium entry relative to resting level; resting calcium signal: higher = higher resting calcium signal
Units: calcium entry signal in fluorescence units; resting calcium signal in fluorescence units
Active means: 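Hit if the duplicate-averaged plate z-score for entry over resting signal is under −3; wells with weak total dye signal (Fmax z < −2) or more than 5 off-targets removed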
Calls: active = strongly reduced calcium entry; inactive = no strong reduction
The screen tested about 23,000 reagents; below is a random part of those that have a named target and a result. Over the whole deposit, 75 (0.33%) are marked active. 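Raw plate signals without normalisation; calls rest on plate z-scores that were not deposited; ratio present for only 364 wells.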 Not stated in the record: the dose of the treatment.

CG14154 [DRSC10156]: calcium entry signal, replicate 1 = 2.56e7; calcium entry signal, replicate 2 = 3.18e7; resting calcium signal, replicate 1 = 1.37e7; resting calcium signal, replicate 2 = 1.42e7; Outcome = inactive
RASSF8 (Ras association domain family member 8) [DRSC15707]: calcium entry signal, replicate 1 = 2.77e7; calcium entry signal, replicate 2 = 3.59e7; resting calcium signal, replicate 1 = 1.42e7; resting calcium signal, replicate 2 = 1.78e7; Outcome = inactive
CG10055 [DRSC12503]: calcium entry signal, replicate 1 = 4.88e7; calcium entry signal, replicate 2 = 3.26e7; resting calcium signal, replicate 1 = 2.45e7; resting calcium signal, replicate 2 = 1.68e7; Outcome = inactive
Su(Tpl) (Suppressor of Triplolethal) [DRSC10954]: calcium entry signal, replicate 1 = 3.34e7; calcium entry signal, replicate 2 = 3.61e7; resting calcium signal, replicate 1 = 1.42e7; resting calcium signal, replicate 2 = 2.15e7; Outcome = inactive
CG30432 [DRSC04833]: calcium entry signal, replicate 1 = 3.01e7; calcium entry signal, replicate 2 = 4.59e7; resting calcium signal, replicate 1 = 1.49e7; resting calcium signal, replicate 2 = 2.06e7; Outcome = inactive
Creld (Cysteine rich with EGF like domains) [DRSC00308]: calcium entry signal, replicate 1 = 4.91e7; calcium entry signal, replicate 2 = 5.10e7; resting calcium signal, replicate 1 = 2.35e7; resting calcium signal, replicate 2 = 2.26e7; Outcome = inactive
Ac76E (Adenylyl cyclase 76E) [DRSC09642]: calcium entry signal, replicate 1 = 5.13e7; calcium entry signal, replicate 2 = 3.55e7; resting calcium signal, replicate 1 = 2.38e7; resting calcium signal, replicate 2 = 1.58e7; Outcome = inactive
Ac76E (Adenylyl cyclase 76E) [DRSC09662]: calcium entry signal, replicate 1 = 3.94e7; calcium entry signal, replicate 2 = 4.84e7; resting calcium signal, replicate 1 = 1.82e7; resting calcium signal, replicate 2 = 3.38e7; Outcome = inactive
DptB (Diptericin B) [DRSC06001]: calcium entry signal, replicate 1 = 5.19e7; calcium entry signal, replicate 2 = 4.16e7; resting calcium signal, replicate 1 = 2.21e7; resting calcium signal, replicate 2 = 2.12e7; Outcome = inactive
CanA1 (Calcineurin A1) [DRSC16600]: calcium entry signal, replicate 1 = 4.48e7; calcium entry signal, replicate 2 = 6.29e7; resting calcium signal, replicate 1 = 2.08e7; resting calcium signal, replicate 2 = 2.66e7; Outcome = inactive
Mgat2 [DRSC16347]: calcium entry signal, replicate 1 = 4.16e7; calcium entry signal, replicate 2 = 5.85e7; resting calcium signal, replicate 1 = 2.07e7; resting calcium signal, replicate 2 = 2.44e7; Outcome = inactive
CG32444 [DRSC11677]: calcium entry signal, replicate 1 = 3.38e7; calcium entry signal, replicate 2 = 3.79e7; resting calcium signal, replicate 1 = 1.62e7; resting calcium signal, replicate 2 = 2.58e7; Outcome = inactive
Eph (Eph receptor tyrosine kinase) [DRSC17164]: calcium entry signal, replicate 1 = 5.08e7; calcium entry signal, replicate 2 = 5.45e7; entry to resting ratio = 2.1; resting calcium signal, replicate 1 = 2.42e7; resting calcium signal, replicate 2 = 2.32e7; Outcome = inactive
CG13403 [DRSC19535]: calcium entry signal, replicate 1 = 2.66e7; calcium entry signal, replicate 2 = 3.63e7; resting calcium signal, replicate 1 = 1.43e7; resting calcium signal, replicate 2 = 1.60e7; Outcome = inactive
CG43373 [DRSC09869]: calcium entry signal, replicate 1 = 6.35e7; calcium entry signal, replicate 2 = 7.00e7; resting calcium signal, replicate 1 = 2.70e7; resting calcium signal, replicate 2 = 2.53e7; Outcome = inactive
CG43373 [DRSC09885]: calcium entry signal, replicate 1 = 5.14e7; calcium entry signal, replicate 2 = 7.11e7; resting calcium signal, replicate 1 = 2.53e7; resting calcium signal, replicate 2 = 2.69e7; Outcome = inactive
CG30049 [DRSC21345]: calcium entry signal, replicate 1 = 4.80e7; calcium entry signal, replicate 2 = 3.04e7; resting calcium signal, replicate 1 = 2.18e7; resting calcium signal, replicate 2 = 1.33e7; Outcome = inactive
CG13108 [DRSC02206]: calcium entry signal, replicate 1 = 3.38e7; calcium entry signal, replicate 2 = 6.16e7; resting calcium signal, replicate 1 = 1.73e7; resting calcium signal, replicate 2 = 2.60e7; Outcome = inactive
CG32276 [DRSC08027]: calcium entry signal, replicate 1 = 3.16e7; calcium entry signal, replicate 2 = 2.62e7; resting calcium signal, replicate 1 = 1.50e7; resting calcium signal, replicate 2 = 1.29e7; Outcome = inactive
CG15225 [DRSC04232]: calcium entry signal, replicate 1 = 5.24e7; calcium entry signal, replicate 2 = 4.93e7; resting calcium signal, replicate 1 = 2.41e7; resting calcium signal, replicate 2 = 2.12e7; Outcome = inactive
CG15225 [DRSC23269]: calcium entry signal, replicate 1 = 5.97e7; calcium entry signal, replicate 2 = 3.25e7; resting calcium signal, replicate 1 = 2.88e7; resting calcium signal, replicate 2 = 1.43e7; Outcome = inactive

Not a retest: an excerpt of the list.
CG30049 [DRSC21345]: calcium entry signal, replicate 1 = 4.80e7; calcium entry signal, replicate 2 = 3.04e7; resting calcium signal, replicate 1 = 2.18e7; resting calcium signal, replicate 2 = 1.33e7; Outcome = inactive
CG13108 [DRSC02206]: calcium entry signal, replicate 1 = 3.38e7; calcium entry signal, replicate 2 = 6.16e7; resting calcium signal, replicate 1 = 1.73e7; resting calcium signal, replicate 2 = 2.60e7; Outcome = inactive
